Test results as given in PMC13558869.

The chains behind the UniProt entries cited, without tags or fusion partners.
UniProt Q9HC16: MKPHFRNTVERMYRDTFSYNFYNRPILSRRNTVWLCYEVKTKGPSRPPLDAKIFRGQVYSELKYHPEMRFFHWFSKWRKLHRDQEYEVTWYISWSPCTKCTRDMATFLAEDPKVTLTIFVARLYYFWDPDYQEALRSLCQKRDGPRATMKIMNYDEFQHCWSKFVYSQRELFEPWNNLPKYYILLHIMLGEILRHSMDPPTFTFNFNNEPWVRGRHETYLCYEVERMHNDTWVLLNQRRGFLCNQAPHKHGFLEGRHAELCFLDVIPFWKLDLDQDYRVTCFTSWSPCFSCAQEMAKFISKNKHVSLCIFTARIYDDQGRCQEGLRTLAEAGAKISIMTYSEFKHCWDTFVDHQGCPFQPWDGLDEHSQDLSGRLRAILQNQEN
UniProt O15234: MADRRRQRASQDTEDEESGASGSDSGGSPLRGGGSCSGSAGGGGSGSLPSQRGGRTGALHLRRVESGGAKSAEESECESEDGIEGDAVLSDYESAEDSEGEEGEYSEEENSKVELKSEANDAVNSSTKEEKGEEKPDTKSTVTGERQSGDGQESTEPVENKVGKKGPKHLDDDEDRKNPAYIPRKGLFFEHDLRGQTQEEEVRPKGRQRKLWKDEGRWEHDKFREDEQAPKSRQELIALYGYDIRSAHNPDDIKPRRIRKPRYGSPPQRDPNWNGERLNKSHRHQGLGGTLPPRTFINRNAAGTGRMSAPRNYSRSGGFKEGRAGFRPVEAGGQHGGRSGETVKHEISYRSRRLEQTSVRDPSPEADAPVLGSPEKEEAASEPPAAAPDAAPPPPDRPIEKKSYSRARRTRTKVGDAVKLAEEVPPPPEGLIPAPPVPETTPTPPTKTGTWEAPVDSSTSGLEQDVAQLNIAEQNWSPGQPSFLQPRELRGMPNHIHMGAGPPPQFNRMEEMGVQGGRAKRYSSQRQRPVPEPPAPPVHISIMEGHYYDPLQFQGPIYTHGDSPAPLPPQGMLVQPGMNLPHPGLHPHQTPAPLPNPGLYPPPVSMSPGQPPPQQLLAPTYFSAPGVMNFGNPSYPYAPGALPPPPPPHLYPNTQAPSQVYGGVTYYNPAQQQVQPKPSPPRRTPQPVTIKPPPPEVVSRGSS
UniProt Q658Y4: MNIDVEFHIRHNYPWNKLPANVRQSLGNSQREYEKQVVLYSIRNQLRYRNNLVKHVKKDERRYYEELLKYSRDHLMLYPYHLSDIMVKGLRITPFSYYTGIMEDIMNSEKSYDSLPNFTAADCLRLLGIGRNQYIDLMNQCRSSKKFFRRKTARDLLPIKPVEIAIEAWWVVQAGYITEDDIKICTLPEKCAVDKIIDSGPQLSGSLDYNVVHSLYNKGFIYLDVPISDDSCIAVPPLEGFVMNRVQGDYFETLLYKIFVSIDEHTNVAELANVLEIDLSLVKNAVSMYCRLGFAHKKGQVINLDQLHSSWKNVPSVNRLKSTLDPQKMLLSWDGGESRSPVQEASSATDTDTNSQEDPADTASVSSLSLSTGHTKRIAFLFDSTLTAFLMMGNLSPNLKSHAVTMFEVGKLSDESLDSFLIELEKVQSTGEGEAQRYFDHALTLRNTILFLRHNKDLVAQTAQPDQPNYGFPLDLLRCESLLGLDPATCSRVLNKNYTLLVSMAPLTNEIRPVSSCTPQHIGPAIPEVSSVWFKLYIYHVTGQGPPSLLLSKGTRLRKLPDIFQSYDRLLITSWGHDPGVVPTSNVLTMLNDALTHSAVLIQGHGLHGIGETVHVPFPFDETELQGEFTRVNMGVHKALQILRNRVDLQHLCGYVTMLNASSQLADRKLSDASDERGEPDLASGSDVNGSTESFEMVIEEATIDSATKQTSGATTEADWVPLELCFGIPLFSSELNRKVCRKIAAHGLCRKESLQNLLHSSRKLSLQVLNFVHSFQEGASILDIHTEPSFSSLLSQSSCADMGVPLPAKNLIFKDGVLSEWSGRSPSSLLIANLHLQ
UniProt P33241: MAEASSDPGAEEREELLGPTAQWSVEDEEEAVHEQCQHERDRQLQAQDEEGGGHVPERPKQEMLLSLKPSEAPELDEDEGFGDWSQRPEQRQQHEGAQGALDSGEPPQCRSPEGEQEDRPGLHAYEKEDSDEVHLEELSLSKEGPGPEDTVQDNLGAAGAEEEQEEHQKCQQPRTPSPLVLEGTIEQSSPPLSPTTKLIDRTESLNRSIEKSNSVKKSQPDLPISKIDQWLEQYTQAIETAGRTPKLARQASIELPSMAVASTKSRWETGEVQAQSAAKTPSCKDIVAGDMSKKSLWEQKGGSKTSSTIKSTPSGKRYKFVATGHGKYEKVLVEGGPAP
UniProt P11940: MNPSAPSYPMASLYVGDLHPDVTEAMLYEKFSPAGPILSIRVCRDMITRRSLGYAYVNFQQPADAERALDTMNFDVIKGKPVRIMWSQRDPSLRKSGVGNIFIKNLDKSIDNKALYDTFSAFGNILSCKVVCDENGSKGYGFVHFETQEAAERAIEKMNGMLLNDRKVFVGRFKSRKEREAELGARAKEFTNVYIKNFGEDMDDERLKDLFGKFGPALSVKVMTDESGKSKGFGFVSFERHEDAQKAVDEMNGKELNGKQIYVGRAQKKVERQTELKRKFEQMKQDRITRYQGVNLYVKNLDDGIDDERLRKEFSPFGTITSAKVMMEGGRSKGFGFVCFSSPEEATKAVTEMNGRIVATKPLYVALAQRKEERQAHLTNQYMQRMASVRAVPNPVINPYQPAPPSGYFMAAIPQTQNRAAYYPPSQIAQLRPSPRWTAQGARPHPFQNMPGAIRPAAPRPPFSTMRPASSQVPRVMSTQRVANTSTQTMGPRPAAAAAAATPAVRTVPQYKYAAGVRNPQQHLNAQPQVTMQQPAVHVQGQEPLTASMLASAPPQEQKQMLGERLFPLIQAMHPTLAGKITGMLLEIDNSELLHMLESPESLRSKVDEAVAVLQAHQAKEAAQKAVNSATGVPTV
UniProt O75381: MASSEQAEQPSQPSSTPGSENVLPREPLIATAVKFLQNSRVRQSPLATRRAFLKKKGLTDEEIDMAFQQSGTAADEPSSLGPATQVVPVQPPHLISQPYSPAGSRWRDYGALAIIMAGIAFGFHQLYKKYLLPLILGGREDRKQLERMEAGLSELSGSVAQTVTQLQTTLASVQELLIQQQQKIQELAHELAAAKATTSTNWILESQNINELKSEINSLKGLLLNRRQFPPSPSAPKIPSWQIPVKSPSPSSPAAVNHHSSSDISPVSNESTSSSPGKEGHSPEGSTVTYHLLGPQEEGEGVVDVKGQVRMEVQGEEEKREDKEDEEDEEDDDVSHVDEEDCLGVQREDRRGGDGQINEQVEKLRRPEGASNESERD
UniProt Q5VSL9: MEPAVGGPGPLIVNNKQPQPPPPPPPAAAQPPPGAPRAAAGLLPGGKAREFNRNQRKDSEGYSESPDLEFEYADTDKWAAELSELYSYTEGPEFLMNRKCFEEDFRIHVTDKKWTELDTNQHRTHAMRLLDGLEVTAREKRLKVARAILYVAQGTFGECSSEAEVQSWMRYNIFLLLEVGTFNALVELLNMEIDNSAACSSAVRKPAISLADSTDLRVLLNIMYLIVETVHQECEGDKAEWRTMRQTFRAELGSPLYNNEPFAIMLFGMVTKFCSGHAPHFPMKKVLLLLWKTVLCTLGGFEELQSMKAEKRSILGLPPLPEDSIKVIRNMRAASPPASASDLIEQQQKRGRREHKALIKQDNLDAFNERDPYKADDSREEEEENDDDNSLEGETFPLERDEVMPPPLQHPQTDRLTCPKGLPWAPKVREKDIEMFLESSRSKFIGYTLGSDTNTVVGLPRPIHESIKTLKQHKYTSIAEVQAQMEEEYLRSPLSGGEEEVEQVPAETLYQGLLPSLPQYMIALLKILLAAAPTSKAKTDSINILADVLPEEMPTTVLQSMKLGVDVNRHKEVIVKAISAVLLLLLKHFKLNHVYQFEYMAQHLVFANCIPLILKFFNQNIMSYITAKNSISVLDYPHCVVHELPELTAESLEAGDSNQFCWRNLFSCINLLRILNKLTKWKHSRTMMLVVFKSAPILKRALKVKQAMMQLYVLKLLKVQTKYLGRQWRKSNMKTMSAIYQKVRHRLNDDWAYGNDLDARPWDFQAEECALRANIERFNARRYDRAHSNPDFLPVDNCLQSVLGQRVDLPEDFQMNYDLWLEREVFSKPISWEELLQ

T1: ZFP36L1 (human (endogenous in primary T cells)) (UniProt Q07352)
T1 sequence: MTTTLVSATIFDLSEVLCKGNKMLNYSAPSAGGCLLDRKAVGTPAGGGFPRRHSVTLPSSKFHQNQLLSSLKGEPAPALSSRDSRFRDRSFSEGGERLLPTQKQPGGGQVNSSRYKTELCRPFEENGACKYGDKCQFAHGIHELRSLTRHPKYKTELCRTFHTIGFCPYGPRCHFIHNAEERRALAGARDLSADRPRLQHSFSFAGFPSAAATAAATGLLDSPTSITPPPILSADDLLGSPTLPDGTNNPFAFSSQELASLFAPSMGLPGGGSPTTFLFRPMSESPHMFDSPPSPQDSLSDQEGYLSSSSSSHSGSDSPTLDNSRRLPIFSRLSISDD

B1: HAUS3 (protein, UniProt Q68CZ6 1-603)
chain: MSCGNEFVETLKKIGYPKADNLNGEDFDWLFEGVEDESFLKWFCGNVNEQNVLSERELEAFSILQKSGKPILEGAALDEALKTCKTSDLKTPRLDDKELEKLEDEVQTLLKLKNLKIQRRNKCQLMASVTSHKSLRLNAKEEEATKKLKQSQGILNAMITKISNELQALTDEVTQLMMFFRHSNLGQGTNPLVFLSQFSLEKYLSQEEQSTAALTLYTKKQFFQGIHEVVESSNEDNFQLLDIQTPSICDNQEILEERRLEMARLQLAYICAQHQLIHLKASNSSMKSSIKWAEESLHSLTSKAVDKENLDAKISSLTSEIMKLEKEVTQIKDRSLPAVVRENAQLLNMPVVKGDFDLQIAKQDYYTARQELVLNQLIKQKASFELLQLSYEIELRKHRDIYRQLENLVQELSQSNMMLYKQLEMLTDPSVSQQINPRNTIDTKDYSTHRLYQVLEGENKKKELFLTHGNLEEVAEKLKQNISLVQDQLAVSAQEHSFFLSKRNKDVDMLCDTLYQGGNQLLLSDQELTEQFHKVESQLNKLNHLLTDILADVKTKRKTLANNKLHQMEREFYVYFLKDEDYLKDIVENLETQSKIKAVSLED
B2: HAUS5 (protein, UniProt O94927 1-633)
chain: MELAQEARELGCWAVEEMGVPVAARAPESTLRRLCLGQGADIWAYILQHVHSQRTVKKIRGNLLWYGHQDSPQVRRKLELEAAVTRLRAEIQELDQSLELMERDTEAQDTAMEQARQHTQDTQRRALLLRAQAGAMRRQQHTLRDPMQRLQNQLRRLQDMERKAKVDVTFGSLTSAALGLEPVVLRDVRTACTLRAQFLQNLLLPQAKRGSLPTPHDDHFGTSYQQWLSSVETLLTNHPPGHVLAALEHLAAEREAEIRSLCSGDGLGDTEISRPQAPDQSDSSQTLPSMVHLIQEGWRTVGVLVSQRSTLLKERQVLTQRLQGLVEEVERRVLGSSERQVLILGLRRCCLWTELKALHDQSQELQDAAGHRQLLLRELQAKQQRILHWRQLVEETQEQVRLLIKGNSASKTRLCRSPGEVLALVQRKVVPTFEAVAPQSRELLRCLEEEVRHLPHILLGTLLRHRPGELKPLPTVLPSIHQLHPASPRGSSFIALSHKLGLPPGKASELLLPAAASLRQDLLLLQDQRSLWCWDLLHMKTSLPPGLPTQELLQIQASQEKQQKENLGQALKRLEKLLKQALERIPELQGIVGDWWEQPGQAALSEELCQGLSLPQWRLRWVQAQGALQKLCS
B3: ZFP36L2 (protein, UniProt P47974 1-494)
chain: MSTTLLSAFYDVDFLCKTEKSLANLNLNNMLDKKAVGTPVAAAPSSGFAPGFLRRHSASNLHALAHPAPSPGSCSPKFPGAANGSSCGSAAAGGPTSYGTLKEPSGGGGTALLNKENKFRDRSFSENGDRSQHLLHLQQQQKGGGGSQINSTRYKTELCRPFEESGTCKYGEKCQFAHGFHELRSLTRHPKYKTELCRTFHTIGFCPYGPRCHFIHNADERRPAPSGGASGDLRAFGTRDALHLGFPREPRPKLHHSLSFSGFPSGHHQPPGGLESPLLLDSPTSRTPPPPSCSSASSCSSSASSCSSASAASTPSGAPTCCASAAAAAAAALLYGTGGAEDLLAPGAPCAACSSASCANNAFAFGPELSSLITPLAIQTHNFAAVAAAAYYRSQQQQQQQGLAPPAQPPAPPSATLPAGAAAPPSPPFSFQLPRRLSDSPVFDAPPSPPDSLSDRDSYLSGSLSSGSLSGSESPSLDPGRRLPIFSRLSISDD
B4: RBM27 (protein, UniProt Q9P2N5 1-1060)
chain: MLIEDVDALKSWLAKLLEPICDADPSALANYVVALVKKDKPEKELKAFCADQLDVFLQKETSGFVDKLFESLYTKNYLPLLEPVKPEPKPLVQEKEEIKEEVFQEPAEEERDGRKKKYPSPQKTRSESSERRTREKKREDGKWRDYDRYYERNELYREKYDWRRGRSKSRSKSRGLSRSRSRSRGRSKDRDPNRNVEHRERSKFKSERNDLESSYVPVSAPPPNSSEQYSSGAQSIPSTVTVIAPAHHSENTTESWSNYYNNHSSSNSFGRNLPPKRRCRDYDERGFCVLGDLCQFDHGNDPLVVDEVALPSMIPFPPPPPGLPPPPPPGMLMPPMPGPGPGPGPGPGPGPGPGPGPGHSMRLPVPQGHGQPPPSVVLPIPRPPITQSSLINSRDQPGTSAVPNLASVGTRLPPPLPQNLLYTVSERQPMYSREHGAAASERLQLGTPPPLLAARLVPPRNLMGSSIGYHTSVSSPTPLVPDTYEPDGYNPEAPSITSSGRSQYRQFFSRTQTQRPNLIGLTSGDMDVNPRAANIVIQTEPPVPVSINSNITRVVLEPDSRKRAMSGLEGPLTKKPWLGKQGNNNQNKPGFLRKNQYTNTKLEVKKIPQELNNITKLNEHFSKFGTIVNIQVAFKGDPEAALIQYLTNEEARKAISSTEAVLNNRFIRVLWHRENNEQPTLQSSAQLLLQQQQTLSHLSQQHHHLPQHLHQQQVLVAQSAPSTVHGGIQKMMSKPQTSGAYVLNKVPVKHRLGHAGGNQSDASHLLNQSGGAGEDCQIFSTPGHPKMIYSSSNLKTPSKLCSGSKSHDVQEVLKKKQEAMKLQQDMRKKRQEVLEKQIECQKMLISKLEKNKNMKPEERANIMKTLKELGEKISQLKDELKTSSAVSTPSKVKTKTEAQKELLDTELDLHKRLSSGEDTTELRKKLSQLQVEAARLGILPVGRGKTMSSQGRGRGRGRGGRGRGSLNHMVVDHRPKALTVGGFIEEEKEDLLQHFSTANQGPKFKDRRLQISWHKPKVPSISTETEEEEVKEEETETSDLFLPDDDDEDEDEYESRSWRR
B5: WDR11 (protein, UniProt Q9BZH6 1-1224)
chain: MLPYTVNFKVSARTLTGALNAHNKAAVDWGWQGLIAYGCHSLVVVIDSITAQTLQVLEKHKADVVKVKWARENYHHNIGSPYCLRLASADVNGKIIVWDVAAGVAQCEIQEHAKPIQDVQWLWNQDASRDLLLAIHPPNYIVLWNADTGTKLWKKSYADNILSFSFDPFDPSHLTLLTSEGIVFISDFSPSKPPSGPGKKVYISSPHSSPAHNKLATATGAKKALNKVKILITQEKPSAEFITLNDCLQLAYLPSKRNHMLLLYPREILILDLEVNQTVGVIAIERTGVPFLQVIPCFQRDGLFCLHENGCITLRVRRSYNNIFTTSNEEPDPDPVQELTYDLRSQCDAIRVTKTVRPFSMVCCPVNENAAALVVSDGRVMIWELKSAVCNRNSRNSSSGVSPLYSPVSFCGIPVGVLQNKLPDLSLDNMIGQSAIAGEEHPRGSILREVHLKFLLTGLLSGLPAPQFAIRMCPPLTTKNIKMYQPLLAVGTSNGSVLVYHLTSGLLHKELSIHSCEVKGIEWTSLTSFLSFATSTPNNMGLVRNELQLVDLPTGRSIAFRGERGNDESAIEMIKVSHLKQYLAVVFRDKPLELWDVRTCTLLREMSKNFPTITALEWSPSHNLKSLRKKQLATREAMARQTVVSDTELSIVESSVISLLQEAESKSELSQNISAREHFVFTDIDGQVYHLTVEGNSVKDSARIPPDGSMGSITCIAWKGDTLVLGDMDGNLNFWDLKGRVSRGIPTHRSWVRKIRFAPGKGNQKLIAMYNDGAEVWDTKEVQMVSSLRSGRNVTFRILDVDWCTSDKVILASDDGCIRVLEMSMKSACFRMDEQELTEPVWCPYLLVPRASLALKAFLLHQPWNGQYSLDISHVDYPENEEIKNLLQEQLNSLSNDIKKLLLDPEFTLLQRCLLVSRLYGDESELHFWTVAAHYLHSLSQEKSASTTAPKEAAPRDKLSNPLDICYDVLCENAYFQKFQLERVNLQEVKRSTYDHTRKCTDQLLLLGQTDRAVQLLLETSADNQHYYCDSLKACLVTTVTSSGPSQSTIKLVATNMIANGKLAEGVQLLCLIDKAADACRYLQTYGEWNRAAWLAKVRLNPEECADVLRRWVDHLCSPQVNQKSKALLVLLSLGCFFSVAETLHSMRYFDRAALFVEACLKYGAFEVTEDTEKLITAIYADYARSLKNLGFKQGAVLFASKAGAAGKDLLNELESPKEEPIEE
B6: Stau2 (protein, UniProt Q9NUL3 1-570)
chain: MANPKEKTAMCLVNELARFNRVQPQYKLLNERGPAHSKMFSVQLSLGEQTWESEGSSIKKAQQAVANKALTESTLPKPVQKPPKSNVNNNPGSITPTVELNGLAMKRGEPAIYRPLDPKPFPNYRANYNFRGMYNQRYHCPVPKIFYVQLTVGNNEFFGEGKTRQAARHNAAMKALQALQNEPIPERSPQNGESGKDVDDDKDANKSEISLVFEIALKRNMPVSFEVIKESGPPHMKSFVTRVSVGEFSAEGEGNSKKLSKKRAATTVLQELKKLPPLPVVEKPKLFFKKRPKTIVKAGPEYGQGMNPISRLAQIQQAKKEKEPDYVLLSERGMPRRREFVMQVKVGNEVATGTGPNKKIAKKNAAEAMLLQLGYKASTNLQDQLEKTGENKGWSGPKPGFPEPTNNTPKGILHLSPDVYQEMEASRHKVISGTTLGYLSPKDMNQPSSSFFSISPTSNSSATIARELLMNGTSSTAEAIGLKGSSPTPPCSPVQPSKQLEYLARIQGFQAALSALKQFSEQGLDPIDGAMNIEKGSLEKQAKHLREKADNNQAPPGSIAQDCKKSNSAV
B7: AIMP2 (protein, UniProt Q13155 1-320)
chain: MPMYQVKPYHGGGAPLRVELPTCMYRLPNVHGRSYGPAPGAGHVQEESNLSLQALESRQDDILKRLYELKAAVDGLSKMIQTPDADLDVTNIIQADEPTTLTTNALDLNSVLGKDYGALKDIVINANPASPPLSLLVLHRLLCEHFRVLSTVHTHSSVKSVPENLLKCFGEQNKKQPRQDYQLGFTLIWKNVPKTQMKFSIQTMCPIEGEGNIARFLFSLFGQKHNAVNATLIDSWVDIAIFQLKEGSSKEKAAVFRSMNSALGKSPWLAGNELTVADVVLWSVLQQIGGCSVTVPANVQRWMRSCENLAPFNTALKLLK

The molecules below were run against T1, ZFP36L1 (human (endogenous in primary T cells)) (assay: affinity purification with mass spectrometry; Co-IP of endogenous ZFP36L1 with 10 μg anti-ZFP36L1 (1A3) or IgG control on Protein A Dynabeads, 4 h at 4°C, from cytoplasmic (1% digitonin) lysates of αCD3/αCD28-activated human CD3+ T cells at 0, 2, 5, 16 h; lysates untreated or treated with 200 U/ml RNAse A throughout; MS).

binding | Molecule
binds | AGO3 (from UniProt Q9H9G7 1-860)
binds | APOBEC3G (from UniProt Q9HC16 1-384)
binds | CASC3 (from UniProt O15234 1-703)
binds | DISL3 (human (endogenous in primary T cells))
binds | FAM91A1 (from UniProt Q658Y4 1-838)
binds | Fam98A (from UniProt Q8NCA5 1-518)
binds | LSP1 (from UniProt P33241 1-339)
binds | PABPC1 (from UniProt P11940 1-636)
binds | PEX14 (from UniProt O75381 1-377)
binds | STRIP1 (from UniProt Q5VSL9 1-837)
binds | B1
binds | B2
binds | B3
binds | B4
binds | B5
binds | B6
binds | B7

No constants are given. Whether binding was seen depends on the method and setting. In cells and extracts the contact can be indirect. Here binding means that the protein was enriched with, or labelled near, the bait; the list need not be complete.
